# From paper PMC8625150
# Sequences of proteins named here, by UniProt entry; tags and fusion partners are left off.
# UniProt P28066: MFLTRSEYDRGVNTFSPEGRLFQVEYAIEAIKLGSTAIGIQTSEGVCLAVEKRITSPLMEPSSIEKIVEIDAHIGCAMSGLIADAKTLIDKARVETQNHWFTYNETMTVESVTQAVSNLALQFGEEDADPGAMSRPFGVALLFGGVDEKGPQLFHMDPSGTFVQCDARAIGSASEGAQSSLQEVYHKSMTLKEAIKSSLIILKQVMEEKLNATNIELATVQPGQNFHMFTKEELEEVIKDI
# These are yes or no findings as the source states them, for the method shown. Binding seen in cells or lysates may run through a third protein. These calls come from enrichment with a bait or labelling near it, and not all partners need be listed. Tags and fused reporters may be left off the sequences shown.
# Biological target: T1, FLAG-CLEC12A (human) (UniProt Q5QGZ9)
# T1 sequence: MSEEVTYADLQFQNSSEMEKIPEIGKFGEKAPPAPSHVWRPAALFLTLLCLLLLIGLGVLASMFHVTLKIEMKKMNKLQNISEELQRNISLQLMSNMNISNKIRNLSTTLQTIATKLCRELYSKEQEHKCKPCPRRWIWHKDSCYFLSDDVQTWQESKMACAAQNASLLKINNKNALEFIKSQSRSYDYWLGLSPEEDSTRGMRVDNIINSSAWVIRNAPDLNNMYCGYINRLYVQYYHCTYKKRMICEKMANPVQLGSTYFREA
# Test: affinity purification with mass spectrometry; whole cell extracts of U-937 cells expressing the FLAG-tagged bait incubated with anti-FLAG beads for 2 h; six washes in 200 mM NaCl, 50 mM Tris-HCl, 0.25% IGEPAL, pH 7.9; on-bead trypsin/LysC digestion; label-free LC-MS/MS; three replicates
substance,measurement,value
PSA5 (from UniProt P28066 1-241),binding,binds
